The experiment concerns the target GST-RhoA (p.Q63L) (UniProt P61586). Briefly: pull-down; GST binding assay; GST-RhoA proteins as bait, GFP-tagged ARHGAP10 as prey; input and bound proteins on immunoblots, densitometry with Odyssey Clx; three independent experiments. A general note: In western blotting, separated proteins are transferred to a membrane and probed.

The chains behind the UniProt entries cited, without tags or fusion partners. Where a name states a change or a piece, a line headed by the entry shows the natural chain unless it says otherwise.
UniProt P61586: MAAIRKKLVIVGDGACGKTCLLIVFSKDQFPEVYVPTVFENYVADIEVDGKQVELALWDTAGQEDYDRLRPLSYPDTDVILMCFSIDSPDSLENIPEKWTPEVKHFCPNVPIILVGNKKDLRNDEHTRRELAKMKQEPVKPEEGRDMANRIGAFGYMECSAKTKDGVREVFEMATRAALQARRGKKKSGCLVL

These are yes or no findings as the source states them, for the method shown. Binding seen in cells or lysates may run through a third protein. Some binding calls cover weakened binding; strength is not graded here. Sequences can lack the tags named with a protein.

B1: GFP-tagged human ARHGAP10 full-length wild-type (protein, UniProt A1A4S6 1-786)
chain: MGLQPLEFSDCYLDSPWFRERIRAHEAELERTNKFIKELIKDGKNLIAATKSLSVAQRKFAHSLRDFKFEFIGDAVTDDERCIDASLREFSNFLKNLEEQREIMALSVTETLIKPLEKFRKEQLGAVKEEKKKFDKETEKNYSLIDKHLNLSAKKKDSHLQEADIQVEQNRQHFYELSLEYVCKLQEIQERKKFEFVEPMLSFFQGMFTFYHQGHELAKDFNHYKMELQINIQNTRNRFEGTRSEVEELMNKIRQNPKDHKRASQFTAEGYLYVQEKRPAPFGSSWVKHYCMYRKAAKKFNMIPFEHRSGGKLGDGEVFFLKECTKRHTDSIDRRFCFDIEAADRPGVSLTMQAFSEEERKQWLEALGGKEALSHSFNTAIIPRPEGNAQLDKMGFTIIRKCISAVETRGINDQGLYRVVGVSSKVQRLLSMLMDVKTCNEVDLENSADWEVKTITSALKQYLRSLPEPLMTYELHGDFIVPAKSGSPESRVNAIHFLVHKLPEKNKEMLDILVKHLTNVSNHSKQNLMTVANLGVVFGPTLMRPQEETVAALMDLKFQNIVVEILIENHEKIFRTPPDTTFPEPTCLSASPPNAPPRQSKRQGQRTKRPVAVYNLCLELEDGDNPYPSKEDTPTSSLDSLSSPSPVTTAVPGPPGPDKNHLLADGGSFGDWASTIPGQTRSSMVQWLNPQSPTTTSSNSAVTPLSPGSSPFPFSPPATVADKPPESIRSRKARAVYPCEAEHSSELSFEIGAIFEDVQTSREPGWLEGTLNGKRGLIPQNYVKLL
Regarding B1, the binding entry was “binds”.
